In publication PMC9830515:
Results are given in words; binding and its absence hold for the method and conditions named. In cells and extracts the contact can be indirect. Some results given as binding are weak or reduced against the parent protein; the word gives no strength.

By UniProt entry, the sequences of proteins in these tests, tags left out. Residues count along the entry.
UniProt Q15843, residues 1-76: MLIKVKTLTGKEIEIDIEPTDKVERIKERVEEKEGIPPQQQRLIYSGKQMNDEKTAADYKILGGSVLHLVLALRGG

What was measured:
[1] = target: His-tagged full-length NEDD8 (human) (UniProt Q15843); test: co-IP; cells transfected with His-tagged full-length NEDD8 and FLAG-tagged full-length or truncated HER2; anti-His immunoprecipitate, immunoblot for FLAG
[2] = target: T1, NEDD8-activating enzyme E1 subunit 1 (NAE1) (human (endogenous in SK-BR3 and BT474)) (UniProt Q13564); test: co-IP; endogenous proteins in lysates of SK-BR3 and BT474 cells; magnetic beads with antibody (anti-NEDD8, anti-NAE1 or anti-HER2), protein bound 1-2 h at 4 °C, washed three times with PBST, immunoblot
T1 sequence: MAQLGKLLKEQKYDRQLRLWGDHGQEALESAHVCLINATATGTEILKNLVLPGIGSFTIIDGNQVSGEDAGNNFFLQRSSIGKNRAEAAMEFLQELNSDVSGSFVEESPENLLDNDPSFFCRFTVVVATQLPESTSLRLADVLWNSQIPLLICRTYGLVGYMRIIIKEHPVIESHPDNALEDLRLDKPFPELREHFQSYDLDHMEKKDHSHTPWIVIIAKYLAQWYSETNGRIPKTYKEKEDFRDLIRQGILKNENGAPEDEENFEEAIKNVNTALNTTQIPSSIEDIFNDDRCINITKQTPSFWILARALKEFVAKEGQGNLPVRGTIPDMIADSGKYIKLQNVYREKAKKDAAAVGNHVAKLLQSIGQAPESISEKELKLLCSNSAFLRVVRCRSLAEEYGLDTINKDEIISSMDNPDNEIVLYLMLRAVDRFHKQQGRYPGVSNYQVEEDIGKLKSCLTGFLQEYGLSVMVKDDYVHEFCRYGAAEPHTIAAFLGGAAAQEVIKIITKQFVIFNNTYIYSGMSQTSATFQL

## FLAG-tagged HER2 domain (988-1255 aa) (from UniProt P04626-1 988-1255) (domain or fragment)
[1]
  binding: binds

## FLAG-tagged HER2 protein domain (720-987 aa) (from UniProt P04626-1 720-987) (domain or fragment)
[1]
  binding: binds

## HER2 (human epidermal growth factor receptor 2) (from UniProt P04626 23-1255)
[2]
  binding: binds
